No constants are given. Whether binding was seen depends on the method and setting. Binding seen in cells or lysates may run through a third protein. Binding can be weak; no strength is given.
What was measured:
Assay in all cases: pull-down; GST-SH3 domains (5-20 ug) on glutathione beads incubated 2 h at 4°C with lysate of HEK293 cells expressing the tagged protein; 20 mM Tris-HCl pH 7.5, 0.5% NP40, 150 mM NaCl, 10% glycerol, 1 mM Na3VO4; immunoblot with antibodies against tags; only the target purified
[1] = target: GST-fused SH3A domain of ITSN1 (human) (UniProt Q15811)
[2] = target: GST-fused SH3B domain of ITSN1 (human) (UniProt Q15811)
[3] = target: GST-fused SH3D domain of ITSN1 (human) (UniProt Q15811)

The chains behind the UniProt entries cited, without tags or fusion partners. Where a name states a change or a piece, a line headed by the entry shows the natural chain unless it says otherwise.
UniProt Q15811: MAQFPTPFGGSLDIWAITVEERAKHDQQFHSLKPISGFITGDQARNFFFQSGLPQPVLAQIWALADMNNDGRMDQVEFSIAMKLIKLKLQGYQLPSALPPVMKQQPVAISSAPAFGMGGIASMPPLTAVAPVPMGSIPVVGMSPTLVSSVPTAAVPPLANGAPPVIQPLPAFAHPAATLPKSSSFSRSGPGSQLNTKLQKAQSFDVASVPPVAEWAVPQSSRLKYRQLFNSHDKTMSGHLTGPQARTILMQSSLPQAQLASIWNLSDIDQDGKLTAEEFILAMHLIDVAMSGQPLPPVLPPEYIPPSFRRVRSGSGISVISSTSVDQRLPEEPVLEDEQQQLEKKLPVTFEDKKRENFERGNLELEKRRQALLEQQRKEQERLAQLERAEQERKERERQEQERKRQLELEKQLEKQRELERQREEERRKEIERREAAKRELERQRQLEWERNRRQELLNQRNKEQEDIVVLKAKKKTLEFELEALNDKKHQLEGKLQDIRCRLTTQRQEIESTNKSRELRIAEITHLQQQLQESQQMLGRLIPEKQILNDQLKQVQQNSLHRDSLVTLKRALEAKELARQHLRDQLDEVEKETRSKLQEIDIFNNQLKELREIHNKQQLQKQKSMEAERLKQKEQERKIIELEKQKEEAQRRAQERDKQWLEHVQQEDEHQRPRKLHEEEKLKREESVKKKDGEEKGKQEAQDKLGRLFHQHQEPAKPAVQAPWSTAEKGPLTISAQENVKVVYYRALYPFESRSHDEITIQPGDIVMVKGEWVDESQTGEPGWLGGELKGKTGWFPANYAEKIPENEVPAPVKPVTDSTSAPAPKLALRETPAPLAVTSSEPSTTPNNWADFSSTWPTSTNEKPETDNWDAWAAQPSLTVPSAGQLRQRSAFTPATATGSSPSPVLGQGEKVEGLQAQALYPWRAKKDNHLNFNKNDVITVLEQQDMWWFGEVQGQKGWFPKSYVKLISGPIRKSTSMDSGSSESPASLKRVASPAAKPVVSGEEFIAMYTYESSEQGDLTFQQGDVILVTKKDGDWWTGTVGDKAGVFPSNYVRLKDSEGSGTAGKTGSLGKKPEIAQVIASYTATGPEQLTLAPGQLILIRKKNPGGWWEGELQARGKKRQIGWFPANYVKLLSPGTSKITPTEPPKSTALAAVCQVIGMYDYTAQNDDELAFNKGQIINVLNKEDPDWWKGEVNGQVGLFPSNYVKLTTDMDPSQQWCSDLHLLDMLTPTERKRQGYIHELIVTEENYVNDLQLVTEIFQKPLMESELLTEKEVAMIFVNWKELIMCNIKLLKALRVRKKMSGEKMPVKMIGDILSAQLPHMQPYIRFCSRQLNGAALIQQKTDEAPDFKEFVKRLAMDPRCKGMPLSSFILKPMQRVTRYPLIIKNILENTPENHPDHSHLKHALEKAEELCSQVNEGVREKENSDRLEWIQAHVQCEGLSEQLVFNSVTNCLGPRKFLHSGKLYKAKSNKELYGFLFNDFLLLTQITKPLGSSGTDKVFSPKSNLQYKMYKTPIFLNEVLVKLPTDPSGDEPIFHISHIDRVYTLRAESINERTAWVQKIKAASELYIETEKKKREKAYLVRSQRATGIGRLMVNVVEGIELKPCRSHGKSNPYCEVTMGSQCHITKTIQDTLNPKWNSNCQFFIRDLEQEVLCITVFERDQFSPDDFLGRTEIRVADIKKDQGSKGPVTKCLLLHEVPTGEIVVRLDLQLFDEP

- binding [1]: binds
- binding [2]: binds
- binding [3]: binds
B1: Omni-CdGAP central domain (residues 174-683) (domain or fragment, UniProt Q2M1Z3 174-683)
chain: WAPNLLRSKEIEATGCNGDAAFLAVRVQQVVIEFILNHVDQIFNNGAPGSLENDENRPIMKSLTLPALSLPMKLVSLEEAQARSLATNHPARKERRENSLPEIVPPMGTLFHTVLELPDNKRKLSSKSKKWKSIFNLGRSGSDSKSKLSRNGSVFVRGQRLSVEKATIRPAKSMDSLCSVPVEGKETKGNFNRTVTTGGFFIPATKMHSTGTGSSCDLTKQEGEWGQEGMPPGAEGGFDVSSDRSHLQGAQARPPPEQLKVFRPVEDPESEQTAPKMLGMFYTSNDSPSKSVFTSSLFQMEPSPRNQRKALNISEPFAVSVPLRVSAVISTNSTPCRTPPKELQSLSSLEEFSFHGSESGGWPEEEKPLGAETSAASVPKKAGLEDAKAVPEAPGTVECSKGLSQEPGAHLEEKKTPESSLSSQHLNELEKRPNPEKVVEEGREAGEMESSTLQESPRARAEAVLLHEMDEDDLANALIWPEIQQELKIIESEEELSSLPPPALKTSPIQ
